Test results: publication PMC9122823
These are yes or no findings as the source states them, for the method shown. In cells and extracts the contact can be indirect. Some entries that bind do so weakly or less than the wild type.

Molecular target: T1, Inhibitor of DNA binding 2 (Id2) (UniProt P41136)
T1 sequence: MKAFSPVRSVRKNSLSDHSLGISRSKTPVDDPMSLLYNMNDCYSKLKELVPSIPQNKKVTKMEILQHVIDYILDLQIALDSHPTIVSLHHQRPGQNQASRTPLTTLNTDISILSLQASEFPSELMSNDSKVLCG
Test: co-IP; immunoprecipitation with Id2 antibodies from lysates of suspended (anchorage-independent) anoikis resistant cells; hypo-phosphorylated Rb detected in the precipitate

binding: binds
B1: hypo-phosphorylated Rb (retinoblastoma tumor suppressor) (protein, UniProt P13405 1-921)
chain: MPPKAPRRAAAAEPPPPPPPPPREDDPAQDSGPEELPLARLEFEEIEEPEFIALCQKLKVPDHVRERAWLTWEKVSSVDGILEGYIQKKKELWGICIFIAAVDLDEMPFTFTELQKSIETSVYKFFDLLKEIDTSTKVDNAMSRLLKKYNVLCALYSKLERTCELIYLTQPSSALSTEINSMLVLKISWITFLLAKGEVLQMEDDLVISFQLMLCVVDYFIKFSPPALLREPYKTAAIPINGSPRTPRRGQNRSARIAKQLENDTRIIEVLCKEHECNIDEVKNVYFKNFIPFINSLGIVSSNGLPEVESLSKRYEEVYLKNKDLDARLFLDHDKTLQTDPIDSFETERTPRKNNPDEEANVVTPHTPVRTVMNTIQQLMVILNSASDQPSENLISYFNNCTVNPKENILKRVKDVGHIFKEKFANAVGQGCVDIGVQRYKLGVRLYYRVMESMLKSEEERLSIQNFSKLLNDNIFHMSLLACALEVVMATYSRSTLQHLDSGTDLSFPWILNVLNLKAFDFYKVIESFIKVEANLTREMIKHLERCEHRIMESLAWLSDSPLFDLIKQSKDGEGPDNLEPACPLSLPLQGNHTAADMYLSPLRSPKKRTSTTRVNSAANTETQAASAFHTQKPLKSTSLALFYKKVYRLAYLRLNTLCARLLSDHPELEHIIWTLFQHTLQNEYELMRDRHLDQIMMCSMYGICKVKNIDLKFKIIVTAYKDLPHAAQETFKRVLIREEEFDSIIVFYNSVFMQRLKTNILQYASTRPPTLSPIPHIPRSPYKFSSSPLRIPGGNIYISPLKSPYKISEGLPTPTKMTPRSRILVSIGESFGTSEKFQKINQMVCNSDRVLKRSAEGGNPPKPLKKLRFDIEGADEADGSKHLPAESKFQQKLAEMTSTRTRMQKQRMNESKDVSNKEEK
modifications: hypo-phosphorylated (so in the source); sites not given for this experiment
